The list shows only some results of the screen, not a fair sample: it is rich in T/C values a quarter to a half above the control, in often repeated tests (any T/C) and in doses without a T/C. Other doses and runs of a compound stand elsewhere. T/C is the treated group as % of the vehicle group. Some doses have a count of surviving animals in place of a T/C: the source holds a T/C of zero for them, seemingly a mark for toxic or unscored doses. Some survivor counts are full or nearly so, which does not show that the dose was tolerated: survival well below the control is almost never listed, so the zero probably covers shortened survival too. Counts of survivors are from the toxicity check (mostly the fifth day) where no day follows; animals may have died later. Schedules are NCI's codes, read here as Q, the interval in days (D) or hours (H), X, the number of doses. Some doses were run more than once; the values are given in rising order. Where survival is the endpoint, the PubChem record calls one and a half times the control and up active, and a quarter to a half above the control has no call in these data; cut-offs in other NCI protocols can differ. Some T/C values are followed by the survivors on the day toxicity was checked, most often the fifth; without a count, all were alive then.
Tested on: P388 leukemia ip, CD2F1 mice, survival T/C
Assay: NCI In Vivo Anticancer Drug Screen. Data for tumor model P388 Leukemia (intraperitoneal) in CD2F1 (CDF1) mice
Conditions: T/C endpoint: median survival time, higher T/C = longer survival
[1] = dose: 200.0 mg/kg/injection, schedule: Q01DX005 (ip), vehicle: Klucel (hydroxypropylcellulose) (HPC)
[2] = dose: 60.0 mg/kg/injection, schedule: Q01DX005 (ip), vehicle: saline with Tween-80
[3] = dose: 100.0 mg/kg/injection, schedule: Q01DX009 (ip), vehicle: saline
[4] = dose: 200.0 mg/kg/injection, schedule: Q01DX009 (ip), vehicle: saline
[5] = dose: 200.0 mg/kg/injection, schedule: Q01DX005 (ip), vehicle: saline with Tween-80
[6] = dose: 200.0 mg/kg/injection, schedule: Q01DX009 (ip), vehicle: saline with Tween-80
[7] = dose: 2.0 mg/kg/injection, schedule: Q01DX001 (ip), vehicle: water
[8] = dose: 100.0 mg/kg/injection, schedule: Q01DX005 (ip), vehicle: saline with Tween-80
[9] = dose: 400.0 mg/kg/injection, schedule: Q04DX003 (ip), vehicle: Klucel (hydroxypropylcellulose) (HPC)
[10] = dose: 400.0 mg/kg/injection, schedule: Q04DX003 (ip), vehicle: saline with Tween-80
[11] = dose: 200.0 mg/kg/injection, schedule: Q04DX003 (ip), vehicle: saline with Tween-80
[12] = dose: 240.0 mg/kg/injection, schedule: Q01DX005 (ip), vehicle: saline with Tween-80
[13] = dose: 400.0 mg/kg/injection, schedule: Q04DX002 (ip), vehicle: saline with Tween-80
[14] = dose: 50.0 mg/kg/injection, schedule: Q01DX005 (ip), vehicle: saline with Tween-80

Structure (SMILES): CCOC(=O)C(=CNc1ccc2c(C)cc3ccc(C(=O)OCC)c(=O)n3c2n1)C(=O)OCC
- survivor count [1]: 5 of 5

Structure (SMILES): COc1cc2cc3cc(-c4ccc(Cl)cc4)c(N4CCOCC4)nc3nc2cc1OC
- survivor count [2]: 4 of 6 and 6 of 6

Structure (SMILES): CC(CN)c1ccccc1 (stereo unspecified)
- survivor count [3]: 3 of 6
- survivor count [4]: 0 of 6

Structure (SMILES): Cc1cc(C)c(-c2cc(C(O)C3OC4OC(C)(C)OC4C3O)on2)c(C)c1 (stereo unspecified)
- survivor count [5]: 6 of 6

Structure (SMILES): Oc1ccccc1C1=NC(c2ccccc2)NC(c2ccccc2)C1 (stereo unspecified)
- survivor count [6]: 6 of 6

Structure (SMILES): CCC1=C[C@H]2CN(CCc3c([nH]c4ccccc34)[C@@](C(=O)OC)(c3cc4c(cc3OC)N(C=O)[C@H]3[C@@](O)(C(=O)OC)[C@H](OC(C)=O)[C@]5(CC)C=CCN6CC[C@]43[C@@H]65)C2)C1
- T/C [7]: 125 % of control
- survivor count [7]: 0 of 6
- survivor count (dose: 4.0 mg/kg/injection, schedule: Q01DX001 (ip), vehicle: water): 0 of 6
- survivor count (dose: 8.0 mg/kg/injection, schedule: Q01DX001 (ip), vehicle: water): 0 of 6
- survivor count (dose: 16.0 mg/kg/injection, schedule: Q01DX001 (ip), vehicle: water): 0 of 6

Structure (SMILES): COc1cc2c(cc1O)CC1c3c(cc(O)c(OC)c3-2)CCN1C (stereo unspecified)
- survivor count [5]: 0 of 6

Structure (SMILES): O=C1OC(c2ccccc2)(c2ccccc2)CC1C=C(c1ccccc1)c1ccccc1 (stereo unspecified)
- survivor count [8]: 6 of 6
- survivor count [5]: 6 of 6

Structure (SMILES): O=C(O)c1ccccc1NC(c1ccccc1)c1ccc2cccnc2c1O (stereo unspecified)
- T/C [9]: 139 % of control [5 of 6 alive]
- survivor count [9]: 2 of 6

Structure (SMILES): CCOc1c(N=Nc2ccc(Cl)cc2Cl)c(C)nn1C(=S)SC
- survivor count (dose: 240.0 mg/kg/injection, schedule: Q01DX005 (ip), vehicle: Klucel + Tween-80): 0 of 6

Structure (SMILES): CSc1nccc(=O)n1-c1ccccc1Cl
- survivor count [10]: 0 of 6

Structure (SMILES): C(CCCSC1=NCCN1)CCSC1=NCCN1
- survivor count [4]: 0 of 6
- survivor count (dose: 400.0 mg/kg/injection, schedule: Q01DX009 (ip), vehicle: saline): 0 of 6

Structure (SMILES): Cc1nc2c([N+](=O)[O-])c(Nc3ccccc3)c([N+](=O)[O-])cc2[nH]1
- survivor count [11]: 0 of 6
- survivor count [10]: 0 of 6

Structure (SMILES): CCOC(=O)/C(C#N)=C(\C)c1ccc2ccccc2c1
- survivor count [2]: 0 of 6
- survivor count (dose: 120.0 mg/kg/injection, schedule: Q01DX005 (ip), vehicle: saline with Tween-80): 0 of 6
- survivor count [12]: 0 of 6

Structure (SMILES): CC(C)(C)NC1/C(=C\c2ccccc2)C(=O)c2ccccc2C1(C)C (stereo unspecified)
- survivor count (dose: 400.0 mg/kg/injection, schedule: Q01DX009 (ip), vehicle: other): 2 of 6

Structure (SMILES): C[N+]1(C)C2CCC1CC(=O)C2
- survivor count (dose: 50.0 mg/kg/injection, schedule: Q01DX009 (ip), vehicle: suspension in saline): 3 of 6

Structure (SMILES): Cc1ccc(N=C(N)NN=C(c2ccc(Cl)cc2)c2ccc(Cl)cc2)cc1
- survivor count [13]: 0 of 6 and 1 of 6

Structure (SMILES): NC(=O)Nc1cc(NC(N)=O)cc(N(CCCl)CCCl)c1
- T/C (dose: 20.0 mg/kg/injection, schedule: Q04DX003 (ip), vehicle: water): 127 % of control
- T/C (dose: 40.0 mg/kg/injection, schedule: Q04DX003 (ip), vehicle: water): 129 % of control
- T/C (dose: 60.0 mg/kg/injection, schedule: Q04DX003 (ip), vehicle: water): 131 % of control

Structure (SMILES): CCOn1nnc2c([N+](=O)[O-])cccc21
- survivor count [5]: 1 of 6

Structure (SMILES): Cc1cc2cc3n(c2nn1)N=C(Cl)CC3
- survivor count [12]: 1 of 6

Structure (SMILES): C[n+]1cc2c3ccccc3ccc2c2ccccc21
- survivor count (dose: 50.0 mg/kg/injection, schedule: Q04DX003 (ip), vehicle: distilled water + Tween-80): 5 of 6
- survivor count (dose: 100.0 mg/kg/injection, schedule: Q04DX003 (ip), vehicle: distilled water + Tween-80): 0 of 6
- survivor count (dose: 200.0 mg/kg/injection, schedule: Q04DX003 (ip), vehicle: distilled water + Tween-80): 2 of 6
- survivor count (dose: 400.0 mg/kg/injection, schedule: Q04DX003 (ip), vehicle: distilled water + Tween-80): 2 of 6

Structure (SMILES): CCCCCCN(CCCCCC)P(=O)(N1CC1C)N1CC1C (stereo unspecified)
- survivor count (dose: 12.5 mg/kg/injection, schedule: Q01DX009 (ip), vehicle: saline with Tween-80): 6 of 6
- survivor count (dose: 25.0 mg/kg/injection, schedule: Q01DX009 (ip), vehicle: saline with Tween-80): 5 of 6
- survivor count (dose: 50.0 mg/kg/injection, schedule: Q01DX009 (ip), vehicle: saline with Tween-80): 3 of 6 and 5 of 6
- survivor count (dose: 100.0 mg/kg/injection, schedule: Q04DX003 (ip), vehicle: saline with Tween-80): 5 of 6
- survivor count [11]: 1 of 6
- survivor count [10]: 0 of 6

Structure (SMILES): CCCCCCNc1nc(NCCCCCC)c2[nH]c(NCCCCCC)nc2n1
- T/C [14]: 131 % of control
- T/C [8]: 127 and 129 % of control
- T/C [5]: 125 and 127 % of control
- T/C (dose: 400.0 mg/kg/injection, schedule: Q01DX005 (ip), vehicle: saline with Tween-80): 127 % of control

Structure (SMILES): CC(C)COC(=O)N1c2ccccc2C=CC1OCC(C)C (stereo unspecified)
- survivor count (dose: 25.0 mg/kg/injection, schedule: Q01DX005 (ip), vehicle: saline with Tween-80): 0 of 6
- survivor count [14]: 0 of 6
- survivor count [8]: 0 of 6
- survivor count [5]: 0 of 6

Structure (SMILES): O=C(Nc1ccc(CCO)cc1)Nc1cc(C(F)(F)F)ccc1Cl
- survivor count [12]: 6 of 6

Structure (SMILES): COc1ccc2c(c1)C(NCCCCCCNc1cc(C)[n+](C)c3ccc(OC)cc13)=CC(C)N2C (stereo unspecified)
- T/C [14]: 129 % of control
- T/C [8]: 127 [4 of 5 alive] and 129 % of control [4 of 5 alive]
- survivor count [5]: 0 of 5 and 1 of 5

Structure (SMILES): COc1cccc2c1C(=O)c1c(O)c3c(c(O)c1C2=O)C[C@@](O)(C(C)O)C[C@@H]3OC1CC(N2CCC(OC)CC2)C(O)C(C)O1 (stereo partly specified)
- T/C (dose: 6.25 mg/kg/injection, schedule: Q04DX003 (ip), vehicle: water): 130 % of control
- T/C (dose: 25.0 mg/kg/injection, schedule: Q04DX003 (ip), vehicle: water): 126 % of control

Structure (SMILES): c1ccc(-c2nn(-c3ccccc3)[n+](-c3ccccc3-c3ccccc3)n2)cc1
- T/C (dose: 20.0 mg/kg/injection, schedule: Q01DX009 (ip), vehicle: saline): 126 % of control
- survivor count (dose: 40.0 mg/kg/injection, schedule: Q01DX009 (ip), vehicle: saline): 0 of 6

Structure (SMILES): O=C1C=CC(=Nc2cc(Cl)c(O)c(Cl)c2)C=C1Cl
- survivor count (dose: 50.0 mg/kg/injection, schedule: Q01DX005 (ip), vehicle: saline): 2 of 5
- survivor count (dose: 100.0 mg/kg/injection, schedule: Q01DX005 (ip), vehicle: saline): 1 of 5
- survivor count (dose: 200.0 mg/kg/injection, schedule: Q01DX005 (ip), vehicle: saline): 0 of 5

Structure (SMILES): CC=C=CCN(C)Cc1ccccc1
- survivor count (dose: 200.0 mg/kg/injection, schedule: Q04DX003 (ip), vehicle: Klucel (hydroxypropylcellulose) (HPC)): 0 of 6

Structure (SMILES): C[C](C)(C)[Sn](=[O])[C](C)(C)C
- survivor count (dose: 50.0 mg/kg/injection, schedule: Q01DX009 (ip), vehicle: saline): 0 of 6
- survivor count [3]: 0 of 6
- survivor count [4]: 0 of 6

Structure (SMILES): COc1ccc(C(C#N)C(=O)CCC(=O)C(C#N)c2ccc(OC)c(OC)c2)cc1OC (stereo unspecified)
- survivor count [13]: 2 of 6

Structure (SMILES): O=c1[nH]cnc2cc([N+](=O)[O-])ccc12
- survivor count [1]: 1 of 5

Structure (SMILES): CCOC(=O)/C=C(\C)SC1=CC(=O)c2ccccc2C1=O
- survivor count (dose: 100.0 mg/kg/injection, schedule: Q01DX009 (ip), vehicle: saline with Tween-80): 3 of 6
- survivor count [6]: 1 of 6

Structure (SMILES): CC(=O)c1ccc(C)cc1C
- survivor count (dose: 400.0 mg/kg/injection, schedule: Q01DX009 (ip), vehicle: saline with Tween-80): 1 of 6

Reference: PubChem BioAssay AID330 (DTP/NCI, 2004)
